Assay results from article doi:10.1101/2025.05.27.656348.
Results are given in words; binding and its absence hold for the method and conditions named. Sequences can lack the tags named with a protein.

Molecular target: T1, RELMβ bait: RELMβ fused to rat CD4d3+4, BirA recognition site and 6X-histidine tag (mouse) (UniProt Q99P86)
T1 sequence (chain, biotin at the BirA recognition site (enzymatic, BirA500 kit; told for SPR only)): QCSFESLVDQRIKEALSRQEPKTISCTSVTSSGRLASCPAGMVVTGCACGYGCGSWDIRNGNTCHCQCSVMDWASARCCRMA
Test: ELISA

binding: no binding
Substance: HpApyMut2 (Heligmosomoides polygyrus bakeri) (enzyme)
